This note sets out measurements from patent US20240043568A1.

Chains of the proteins cited; added tags and fusions are not shown. Lines headed by an entry give the natural chain unless they say otherwise; changes in a name come on top.
UniProt P51654: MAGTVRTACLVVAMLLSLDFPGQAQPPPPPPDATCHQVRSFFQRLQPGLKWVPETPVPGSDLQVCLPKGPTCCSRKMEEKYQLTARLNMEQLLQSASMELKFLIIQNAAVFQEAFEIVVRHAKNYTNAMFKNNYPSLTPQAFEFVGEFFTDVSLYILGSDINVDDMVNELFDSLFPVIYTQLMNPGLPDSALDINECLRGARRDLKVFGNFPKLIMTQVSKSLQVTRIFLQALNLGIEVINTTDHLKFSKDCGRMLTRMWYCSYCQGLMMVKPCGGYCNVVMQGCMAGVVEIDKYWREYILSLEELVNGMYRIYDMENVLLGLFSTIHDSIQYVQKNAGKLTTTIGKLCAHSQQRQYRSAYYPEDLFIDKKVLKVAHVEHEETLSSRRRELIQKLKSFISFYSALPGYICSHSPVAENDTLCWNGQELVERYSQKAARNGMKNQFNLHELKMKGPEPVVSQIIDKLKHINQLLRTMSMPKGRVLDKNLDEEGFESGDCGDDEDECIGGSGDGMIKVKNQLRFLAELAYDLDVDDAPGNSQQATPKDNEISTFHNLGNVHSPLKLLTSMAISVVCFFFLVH
UniProt Q8CFZ4: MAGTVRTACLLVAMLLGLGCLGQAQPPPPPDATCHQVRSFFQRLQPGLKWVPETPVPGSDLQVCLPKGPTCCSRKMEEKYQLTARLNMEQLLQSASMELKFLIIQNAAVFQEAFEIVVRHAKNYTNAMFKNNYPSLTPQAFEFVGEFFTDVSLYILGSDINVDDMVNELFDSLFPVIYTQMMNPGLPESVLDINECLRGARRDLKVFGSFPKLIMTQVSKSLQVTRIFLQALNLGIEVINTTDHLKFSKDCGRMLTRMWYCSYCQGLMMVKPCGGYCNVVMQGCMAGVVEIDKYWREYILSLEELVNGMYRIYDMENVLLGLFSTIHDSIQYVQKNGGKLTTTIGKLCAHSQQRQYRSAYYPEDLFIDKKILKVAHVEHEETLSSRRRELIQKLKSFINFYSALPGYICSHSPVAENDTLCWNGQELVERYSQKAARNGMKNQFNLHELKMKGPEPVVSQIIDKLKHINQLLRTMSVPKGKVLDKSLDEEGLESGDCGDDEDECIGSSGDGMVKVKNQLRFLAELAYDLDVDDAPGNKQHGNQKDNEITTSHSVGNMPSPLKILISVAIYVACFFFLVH

Substitutions are numbered along the chain they refer to. Results are given in words; binding and its absence hold for the method and conditions named. Some binding calls cover weakened binding; strength is not graded here.

For assay [1], the target named is recombinant human GPC3 protein (human) (UniProt P51654). As to the kind of experiment: BLI (Octet). A general note: Biolayer interferometry detects binding as a change in optical thickness at a sensor tip.
The target is the same in assay [2]. Nature of the assay: ELISA on coated recombinant human GPC3 protein, OD450 [panel Recombinant human GPC3 protein]. (In general: ELISA stands for enzyme-linked immunosorbent assay.)
Assay [3] deals with recombinant cynomolgus monkey GPC3 full-length protein (cynomolgus monkey). Nature of the assay: ELISA on coated recombinant cynomolgus monkey GPC3 protein, OD450 [panel Recombinant cynomolgus monkey GPC3 protein].
For assay [4] the target is unchanged. As to the kind of experiment: SPR (Biacore T200). On the technique in general: SPR reads the build-up and loss of mass on a sensor chip optically.
Assay [5] has the same target. Nature of the assay: ELISA.
Assay [6] addresses recombinant mouse GPC3 full-length protein (mouse) (UniProt Q8CFZ4). As to the kind of experiment: ELISA.
The target is the same in assay [7]. As to the kind of experiment: ELISA, coated antigen 1 µg/ml.
The target is the same in assay [8]. Nature of the assay: ELISA on coated recombinant mouse GPC3 protein, OD450 [panel Mouse recombinant GPC3 protein].

B1: h49G8VHv6VKv2 (antibody, V domains shown)
VH: QVQLVQSGAEVKKPGSSVKVSCKASGYTFADYEIHWVRQAPGQGLEWMGAIHPGSGGTAYAQKFQGRVTLTADESSTTAYMELSSLRSEDTAVYYCTRYYSFAYWGQGTLVTVSS
VL: DVVMTQSPLSLPVTPGEPASISCRSSQSIVHSNYNTYLEWYLQKPGQSPQLLIYKVSNRFSGVPDRFSGSGSGTDFTLKISRVEAEDVGVYFCLQVTHVPLTFGQGTKLEIK
Take B1: the binding result in assay [1], in assay [2] and in assay [3] was “binds” each time.

B2: h49G8VHv6VKv3 (antibody, V domains shown)
VH: B1 VH
VL: B1 VL with Y34G
Turning to B2, the binding entry in assay [4] and in assay [3] was “binds” each time.

B3: 49G8 (antibody, V domains shown)
VH: QVQLQQSGAELVRPGASVKLSCKALGYTFADYEIHWVKQTPVHGLEWIGAIHPGSGGTAYNQTFEGKATLTADKSSTTAYMELSSLTSEDSAVYYCTRYYSFAYWGQGTLVTVSA
VL: B1 VL with S7T, T14S, P15L, E17D, P18Q, Y34G, Q50K, V88L, Q105A, I111L
For B3, the binding result in assay [5], in assay [6], in assay [7], in assay [8] and in assay [3] was “binds” throughout.

B4: h49G8VHv6VKv4 (antibody, V domains shown)
VH: B1 VH
VL: B1 VL with Y34S
On to B4, for which the binding result in assay [3] is on record as “binds”.

B5: h49G8VHv6VKv6 (antibody, V domains shown)
VH: B1 VH
VL: B1 VL with Y34A
Consider B5, for which the binding result in assay [3] is listed as “binds”.

B6: h49G8VHv6VKv5 (antibody, V domains shown)
VH: B1 VH
VL: B1 VL with Y34T
Regarding B6, in assay [3], the binding entry was “binds”.
